Experimental data taken from PubChem BioAssay AID334 (DTP/NCI, 2004).
The list is a part of this screen's results and no random one: it is rich in T/C values a quarter to a half above the control, in often repeated tests (any T/C) and in doses without a T/C. Other doses and runs of a compound stand elsewhere. T/C: endpoint of the treated group in % of that of the vehicle group. Some doses have a count of surviving animals in place of a T/C: the source holds a T/C of zero for them, seemingly a mark for toxic or unscored doses. Some survivor counts are full or nearly so, which does not show that the dose was tolerated: the source hardly ever lists a survival T/C far under the control, and the zero likely stands for such cases as well. Counts of survivors are from the toxicity check (mostly the fifth day) where no day follows; animals may have died later. Schedules are NCI's codes, taken here to give the interval after Q, in days (D) or hours (H), and the number of doses after X. Some doses were run more than once; the results are listed from low to high. Where survival is the endpoint, the PubChem record calls one and a half times the control and up active, and a quarter to a half above the control has no call in these data; cut-offs in other NCI protocols can differ. Some T/C values carry the count of animals alive at the toxicity check (mostly the fifth day); where none is given, no animal had died by that day.

Test system: CD2F1 mice, intracerebral P388 leukemia, median survival T/C%
Assay: NCI In Vivo Anticancer Drug Screen. Data for tumor model P388 Leukemia (intracerebral) in CD2F1 (CDF1) mice
Conditions: T/C endpoint: median survival time, higher T/C = longer survival
Procedure: The antitumor activity of compounds was measured in mice bearing transplantable tumors. Survival or tumor size were measured and the results are expressed as the measurement made in the treated group (T) divided by the measurement made in the vehicle treated control group (C). The tumor model used in this assay is P388 Leukemia (intracerebral) in CD2F1 (CDF1) mice

Q: Which T/C (dose: 0.05 mg/kg/injection, schedule: Q01DX005 (ip), vehicle: Klucel (hydroxypropylcellulose) (HPC)) does the source give for `N=[N+]=CC(=O)CCC(NC(=O)C(CCC(=O)C=[N+]=N)NC(=O)CCC(N)C(=O)O)C(=O)O` (stereo not given) here?
A: The T/C was 135 % of control.

Q: How did the survivor count (dose: 40.0 mg/kg/injection, schedule: Q01DX009 (ip), vehicle: saline) turn out when `CC1(C)N=C(N)N=C(N)N1c1ccc(CCCCc2cccc(S(=O)(=O)F)c2)c(Cl)c1` was run?
A: Its survivor count is 1 of 6.

Q: How did the survivor count (dose: 42.4 mg/kg/injection, schedule: Q03HX008 (ip), vehicle: saline) turn out when `CCCCCC(=O)NC(Cc1ccc(N(CCCl)CCCl)cc1)C(=O)O` (stereo not given) was run?
A: Its survivor count is 2 of 10.

Q: Which T/C (dose: 12.5 mg/kg/injection, schedule: Q01DX009 (ip), vehicle: gum acacia) does the source give for `CO[C@H]1C[C@@H]2CC[C@@H](C)[C@@](O)(O2)C(=O)C(=O)N2CCCC[C@H]2C(=O)O[C@H]([C@H](C)C[C@@H]2CC[C@@H](O)[C@H](OC)C2)CC(=O)[C@H](C)C=C(C)[C@@H](O)[C@@H](OC)C(=O)[C@H](C)C[C@H](C)/C=C/C=C/C=C1C` here?
A: The T/C was 138 % of control [9 of 10 alive].

Q: What about the T/C (dose: 25.0 mg/kg/injection, schedule: Q01DX009 (ip), vehicle: gum acacia) of the same molecule?
A: The T/C was 133 % of control.

Q: What about the T/C (dose: 50.0 mg/kg/injection, schedule: Q01DX009 (ip), vehicle: gum acacia) of the same molecule?
A: Its T/C is 130 % of control [9 of 10 alive].

Q: And the T/C (dose: 100.0 mg/kg/injection, schedule: Q01DX009 (ip), vehicle: gum acacia)?
A: The T/C was 130 % of control.

Q: And the T/C (dose: 200.0 mg/kg/injection, schedule: Q01DX009 (ip), vehicle: gum acacia)?
A: The T/C was 137 % of control [8 of 10 alive].

Q: `CN(C)CC(=O)c1ccc(O)c(O)c1` was tested. Which survivor count (dose: 800.0 mg/kg/injection, schedule: Q01DX005 (ip), vehicle: saline) did it give?
A: Its survivor count is 2 of 8.

Q: And the survivor count (dose: 800.0 mg/kg/injection, schedule: Q01DX005 (ip), vehicle: suspension in saline)?
A: Its survivor count is 6 of 10.

Q: For `CC(=O)N(C)c1ccc(Nc2cc(C)[nH]c3ccc4ncnc4c23)cc1`, which survivor count (dose: 80.0 mg/kg/injection, schedule: Q01DX005 (ip), vehicle: saline) is on record?
A: The survivor count was 6 of 6.

Q: What about the survivor count (dose: 160.0 mg/kg/injection, schedule: Q01DX005 (ip), vehicle: saline) of the same molecule?
A: The survivor count was 0 of 6.

Q: With `Nc1nc2c(c(=O)[nH]1)N(C=O)C(CNc1ccc(C(=O)N[C@@H](CCC(=O)O)C(=O)O)cc1)CN2` (stereo not given in full) as the molecule, how does the survivor count (dose: 1024.0 mg/kg/injection, schedule: Q01DX005 (ip), vehicle: suspension in saline) read?
A: The survivor count was 6 of 10.

Q: With `COc1ccc(CC2C(=O)NC(C)C(=O)N(C)C3C(=O)N(C)C(Cc4ccc(O)c(c4)Oc4ccc(cc4)C3O)C(=O)NC(C)C(=O)NC(C)C(=O)N2C)cc1` (stereo not given) as the molecule, how does the survivor count (dose: 4.0 mg/kg/injection, schedule: Q01DX009 (ip), vehicle: Klucel (hydroxypropylcellulose) (HPC)) read?
A: Its survivor count is 6 of 10.

Q: How did the survivor count (dose: 30.0 mg/kg/injection, schedule: Q04DX003 (ip), vehicle: clinical formulation) turn out when `COc1cccc2c1C(=O)c1c(O)c3c(c(O)c1C2=O)CC(O)(C(=O)CO)CC3OC1CC(N)C(O)C(C)O1` (stereo not given) was run?
A: The survivor count was 6 of 10.

Q: With `CC[n+]1c(-c2ccccc2)c2cc(N)ccc2c2ccc(N)cc21` as the molecule, how does the survivor count (dose: 24.0 mg/kg/injection, schedule: Q01DX005 (ip), vehicle: saline) read?
A: Its survivor count is 10 of 10.

Q: What about the survivor count (dose: 48.0 mg/kg/injection, schedule: Q01DX005 (ip), vehicle: saline) of the same molecule?
A: The survivor count was 8 of 10 and 9 of 10.

Q: What about the survivor count (dose: 96.0 mg/kg/injection, schedule: Q01DX005 (ip), vehicle: saline) of the same molecule?
A: Its survivor count is 0 of 10.

Q: For `CC[C@H]1CN2CCc3cc(OC)c(OC)cc3[C@@H]2C[C@@H]1C[C@H]1NCCc2cc(OC)c(OC)cc21`, which survivor count (dose: 16.0 mg/kg/injection, schedule: Q01DX005 (ip), vehicle: Klucel (hydroxypropylcellulose) (HPC)) is on record?
A: Its survivor count is 5 of 10 and 8 of 10.

Q: For `O=C1N(Cl)C(=O)C(c2ccc(Cl)cc2)(c2ccc(Cl)cc2)N1Cl`, which survivor count (dose: 400.0 mg/kg/injection, schedule: Q01DX009 (ip), vehicle: saline with Tween-80) is on record?
A: The survivor count was 9 of 10.

Q: For `NC(=O)c1csc(C2OC(CO)C(O)C2O)n1` (stereo not given), which T/C (dose: 400.0 mg/kg/injection, schedule: Q01DX009 (ip), vehicle: saline) is on record?
A: The T/C was 142 % of control.

Q: `COc1cc([C@@H]2c3cc4c(cc3[C@@H](OC3OC5CO[C@@H](c6cccs6)OC5C(O)C3O)[C@H]3COC(=O)[C@H]23)OCO4)cc(OC)c1O` (stereo not given in full) was tested. Which T/C (dose: 1.0 mg/kg/injection, schedule: Q01DX009 (ip), vehicle: saline) did it give?
A: Its T/C is 131 % of control.

Q: And the survivor count (dose: 8.0 mg/kg/injection, schedule: Q01DX009 (ip), vehicle: saline)?
A: The survivor count was 4 of 6.

Q: For `O=P1(NCCCl)OCCCN1CCCl` (stereo not given), which T/C (dose: 431.0 mg/kg/injection, schedule: Q01DX001 (ip), vehicle: saline) is on record?
A: The T/C was 149 % of control.

Q: Which survivor count (dose: 40.0 mg/kg/injection, schedule: Q01DX009 (ip), vehicle: Klucel (hydroxypropylcellulose) (HPC)) does the source give for `CC(=O)O[C@H]1C(=O)[C@@]2(C)[C@H]([C@H](OC(=O)c3ccccc3)[C@]3(O)C[C@H](OC(=O)[C@H](O)[C@@H](NC(=O)c4ccccc4)c4ccccc4)C(C)=C1C3(C)C)[C@]1(OC(C)=O)CO[C@@H]1C[C@@H]2O` here?
A: The survivor count was 7 of 10.
